Results: publication PMC10565641
No constants are given. Whether binding was seen depends on the method and setting. Binding seen in cells or lysates may run through a third protein. Some results given as binding are weak or reduced against the parent protein; the word gives no strength. Tags and fused reporters may be left off the sequences shown.

Target: FLAG-V5-tagged FBXW7α, wild type (human), Q969H0
Test: co-IP; HEK293T cells co-transfected with tagged constructs; benzonase lysis buffer, KCl to 450 mM then diluted to 150 mM; anti-FLAG M2 magnetic beads 2 h; five washes with 100 mM KCl at 4°C; immunoblot for tagged or indicated proteins
Conditions: remark: other sources report otherwise

B1: Myc-tagged LEF1, Q9UJU2 1-399 (protein)
chain: MPQLSGGGGGGGGDPELCATDEMIPFKDEGDPQKEKIFAEISHPEEEGDLADIKSSLVNESEIIPASNGHEVARQAQTSQEPYHDKAREHPDDGKHPDGGLYNKGPSYSSYSGYIMMPNMNNDPYMSNGSLSPPIPRTSNKVPVVQPSHAVHPLTPLITYSDEHFSPGSHPSHIPSDVNSKQGMSRHPPAPDIPTFYPLSPGGVGQITPPLGWQGQPVYPITGGFRQPYPSSLSVDTSMSRFSHHMIPGPPGPHTTGIPHPAIVTPQVKQEHPHTDSDLMHVKPQHEQRKEQEPKRPHIKKPLNAFMLYMKEMRANVVAECTLKESAAINQILGRRWHALSREEQAKYYELARKERQLHMQLYPGWSARDNYGKKKKRKREKLQESASGTGPRMTAAYI
  binding: binds
